Laboratory results from the supplement of paper PMC12819154, “High-throughput peptide-centric local stability assay extends protein–ligand identification to membrane proteins, tissues and bacteria” (Nature Structural & Molecular Biology, 2025).
The other results are listed elsewhere or left out. Small differences around the control level are noise.

Sequences of proteins named here, by UniProt entry; tags and fusion partners are left off. A change or cut given only in a name is not applied to a line headed by its entry.
UniProt Q8K4L6: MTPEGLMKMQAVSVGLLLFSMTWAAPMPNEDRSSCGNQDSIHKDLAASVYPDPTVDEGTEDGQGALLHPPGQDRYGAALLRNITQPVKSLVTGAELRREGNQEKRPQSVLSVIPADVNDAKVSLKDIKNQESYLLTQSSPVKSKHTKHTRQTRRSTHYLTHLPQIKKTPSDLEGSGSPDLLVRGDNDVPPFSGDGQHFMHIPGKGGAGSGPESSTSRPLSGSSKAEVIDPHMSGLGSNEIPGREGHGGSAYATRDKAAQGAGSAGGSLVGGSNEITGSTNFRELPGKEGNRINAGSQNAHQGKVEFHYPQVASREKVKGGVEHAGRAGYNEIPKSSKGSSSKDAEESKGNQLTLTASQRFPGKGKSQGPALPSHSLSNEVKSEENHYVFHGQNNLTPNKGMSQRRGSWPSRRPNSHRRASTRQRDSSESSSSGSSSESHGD
UniProt Q8K327: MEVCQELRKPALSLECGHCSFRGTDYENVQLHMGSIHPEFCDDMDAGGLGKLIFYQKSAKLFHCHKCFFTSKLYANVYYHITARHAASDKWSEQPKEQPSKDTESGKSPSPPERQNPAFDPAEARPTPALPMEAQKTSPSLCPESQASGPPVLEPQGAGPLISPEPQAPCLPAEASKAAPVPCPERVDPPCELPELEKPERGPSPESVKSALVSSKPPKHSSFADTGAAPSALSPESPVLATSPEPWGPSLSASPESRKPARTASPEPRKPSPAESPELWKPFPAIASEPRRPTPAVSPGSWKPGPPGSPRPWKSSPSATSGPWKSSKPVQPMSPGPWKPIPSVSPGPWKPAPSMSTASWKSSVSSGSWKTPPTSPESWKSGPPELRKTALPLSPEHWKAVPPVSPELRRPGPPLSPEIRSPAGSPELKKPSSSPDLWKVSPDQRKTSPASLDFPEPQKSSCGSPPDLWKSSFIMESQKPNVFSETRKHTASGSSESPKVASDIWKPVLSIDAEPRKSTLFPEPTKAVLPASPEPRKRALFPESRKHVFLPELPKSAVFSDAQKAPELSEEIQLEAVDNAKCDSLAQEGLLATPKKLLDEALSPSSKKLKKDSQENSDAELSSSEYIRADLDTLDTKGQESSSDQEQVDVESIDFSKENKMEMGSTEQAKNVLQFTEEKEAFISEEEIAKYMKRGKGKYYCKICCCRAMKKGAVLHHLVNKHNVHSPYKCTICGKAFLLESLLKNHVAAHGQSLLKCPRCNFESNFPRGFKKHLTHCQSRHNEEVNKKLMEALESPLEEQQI
UniProt Q8K371: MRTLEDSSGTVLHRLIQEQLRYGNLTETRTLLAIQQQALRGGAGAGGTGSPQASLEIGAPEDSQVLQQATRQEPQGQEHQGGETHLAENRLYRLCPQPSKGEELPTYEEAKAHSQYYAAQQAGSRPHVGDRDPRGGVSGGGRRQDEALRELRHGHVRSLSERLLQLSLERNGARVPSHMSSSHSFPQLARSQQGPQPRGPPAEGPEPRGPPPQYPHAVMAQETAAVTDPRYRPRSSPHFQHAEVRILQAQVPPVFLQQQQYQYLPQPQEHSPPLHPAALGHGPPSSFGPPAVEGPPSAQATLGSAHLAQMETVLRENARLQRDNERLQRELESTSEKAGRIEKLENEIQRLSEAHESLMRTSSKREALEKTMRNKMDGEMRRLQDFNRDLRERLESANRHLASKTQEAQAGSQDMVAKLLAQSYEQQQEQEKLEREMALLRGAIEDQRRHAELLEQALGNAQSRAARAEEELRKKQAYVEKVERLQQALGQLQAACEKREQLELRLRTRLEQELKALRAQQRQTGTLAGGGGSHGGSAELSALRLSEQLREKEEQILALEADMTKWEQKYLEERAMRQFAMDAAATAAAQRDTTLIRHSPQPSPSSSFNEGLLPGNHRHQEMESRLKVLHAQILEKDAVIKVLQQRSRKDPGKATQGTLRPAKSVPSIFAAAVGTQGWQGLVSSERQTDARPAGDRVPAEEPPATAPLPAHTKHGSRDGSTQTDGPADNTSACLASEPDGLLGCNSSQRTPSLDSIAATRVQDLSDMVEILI
UniProt Q8K2R5: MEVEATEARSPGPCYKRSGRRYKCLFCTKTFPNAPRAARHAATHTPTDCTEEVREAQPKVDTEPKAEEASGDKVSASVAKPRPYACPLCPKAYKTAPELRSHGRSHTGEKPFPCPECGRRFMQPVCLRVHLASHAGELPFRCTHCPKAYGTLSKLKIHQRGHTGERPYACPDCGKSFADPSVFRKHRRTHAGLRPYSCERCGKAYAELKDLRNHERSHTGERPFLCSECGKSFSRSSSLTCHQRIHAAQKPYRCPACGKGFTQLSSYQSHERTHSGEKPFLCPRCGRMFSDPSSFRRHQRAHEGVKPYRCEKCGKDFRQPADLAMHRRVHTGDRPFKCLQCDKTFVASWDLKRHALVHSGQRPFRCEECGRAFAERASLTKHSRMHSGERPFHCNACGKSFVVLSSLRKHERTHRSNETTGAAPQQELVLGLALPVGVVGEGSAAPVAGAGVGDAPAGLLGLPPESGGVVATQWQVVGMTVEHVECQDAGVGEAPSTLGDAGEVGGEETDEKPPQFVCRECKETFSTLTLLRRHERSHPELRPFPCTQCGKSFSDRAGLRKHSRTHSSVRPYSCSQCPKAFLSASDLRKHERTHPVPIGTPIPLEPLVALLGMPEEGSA

compound: CN[C@@H]1C[C@H]2O[C@@](C)([C@@H]1OC)n1c3ccccc3c3c4c(c5c6ccccc6n2c5c31)C(=O)NC4 [staurosporine]; test: log2 fold change of tryptic peptide abundance, ligand vs vehicle (limited proteolysis) (log2 ratio); higher = more trypsin-susceptible (destabilized); details: ligand concentration: 20 uM; sample: mouse liver crude lysate; replicate design: treated separately

Target	log2 fold change
UniProt Q8K4L6 (peptide sequence: RGSWPSRR, peptide start residue: 405)	-0.216
UniProt Q8K327 (peptide sequence: SSFIMESQKPNVFSETR, peptide start residue: 471)	-0.475
UniProt Q8K371 (peptide sequence: TPSLDSIAATR, peptide start residue: 750)	0.61
UniProt Q8K2R5 (peptide sequence: RHERSHPELR, peptide start residue: 533)	0.155
